Earlier results, collected in patent US20040136975A1 (priority 2004, published 2004).
At least one compound was matched to its structure with a doubt left.

Test system: VEGF
Details: cited from earlier work

COC[C@H]1OC(=O)c2coc3c2[C@@]1(C)C1=C(C3=O)[C@@H]2CCC(=O)[C@@]2(C)C[C@H]1OC(C)=O [Wortmannin]
up-regulation of VEGF by heregulin: nor
